Results published in PMC8632972.
These are yes or no findings as the source states them, for the method shown. In cells and extracts the contact can be indirect. Binding calls can cover weak binding; strength is not graded here. Where a sequence is shown, tags or fusion partners need not be part of it.

What was measured:
[1] = target: HA-tagged WFS1 (not stated (cDNA from INS1 cells)); experiment: co-IP; proteins transiently expressed in HEK-293T cells; lysis in buffer A (20 mM Tris-HCl pH 7.5, 100 mM KCl, 5 mM MgCl2, 0.5% NP-40); anti-HA antibody on protein A/G magnetic beads overnight at 4 °C; immunoblot
[2] = target: WFS1 tagged with N-terminal segment of YFP (nYFP) (not stated (cDNA from INS1 cells)); experiment: split reporter; HEK-293T cells transfected with 200 ng nYFP- and 200 ng cYFP-tagged constructs, 48 h, then 30 °C for 6 h; fluorescence by flow cytometry or confocal imaging of live cells
[3] = target: HA-tagged WFS1 (not stated (cDNA from INS1 cells)); experiment: proximity ligation; HEK-293T cells co-transfected with HA-tagged Wfs1 and cargo protein-cYFP or Myc-tagged COPII protein plasmids for 48 h, fixed, Duolink In Situ PLA with anti-rabbit PLUS and anti-mouse MINUS probes; puncta per cell counted
[4] = target: WFS1 tagged with N-terminal segment of YFP (nYFP) (not stated (cDNA from INS1 cells)); experiment: split reporter; BiFC of WFS1 and vesicular cargo proteins in INS1 cells

Measured: binding

B1: SCG5 tagged with cYFP (protein, UniProt P27682 25-210)
chain: YSPRTPDRVSETDIQRLLHGVMEQLGIARPRVEYPAHQAMNLVGPQSIEGGAHEGLQHLGPFGNIPNIVAELTGDNIPKDFSEDQGYPDPPNPCPLGKTADDGCLENAPDTAEFSREFQLDQHLFDPEHDYPGLGKWNKKLLYEKMKGGQRRKRRSVNPYLQGKRLDNVVAKKSVPHFSEEEKEPE
binds: all assays above

B2: proinsulin tagged with C-terminal segment of YFP (cYFP) (protein, UniProt P01322 25-110)
chain: FVKQHLCGPHLVEALYLVCGERGFFYTPKSRREVEDPQVPQLELGGGPEAGDLQTLALEVARQKRGIVDQCCTSICSLYQLENYCN
binds: all assays above
